Laboratory results: PubChem BioAssay AID1259405 (NCATS, 2018)

- Aim: 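Knock-downs that lift recombinant protein yield in hamster ovary cells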 (primary screen)
- Cells: Chinese hamster CHO-K1 ovary cells with stable secreted eGFP expression
- Reagent: single siRNA against mouse genes, 0.8 pmol siRNA per well (2 µl of 400 nM stock)
- Duration: 3 days
- Measured: 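Per-well intracellular GFP measured by laser scanning cytometry, plus viability from ATP luminescence, each relative to plate median of non-targeting control wells, in %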
- Reading the numbers: GFP, % of control: higher = more GFP per well, higher productivity; viability (ATP), % of control: higher = more viable cells (more ATP)
- Call rule: 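a knock-down is called active if GFP reaches 120% or more of non-targeting control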
The whole screen tested about 50,000 reagents; below is a random part of them. In the full data, about 4,000 (8%) are marked active. 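Mouse siRNA library applied to hamster cells; one well for each siRNA.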 Reagents against one gene are numbered here. No sequences are given here.

gene knocked down	reagent no.	GFP, % of control	viability (ATP), % of control	Outcome
Rgs14	1	67.1	93.6	inactive
Rgs14	2	93	107	inactive
Rgs14	3	58.5	58.7	inactive
Or8b1	1	51.6	56.9	inactive
Or8b1	2	72.9	84.7	inactive
Or8b1	3	73.7	35.3	inactive
Ces3b	1	92	75.8	inactive
Ces3b	2	62.9	82.8	inactive
Ces3b	3	50.8	61.3	inactive
Slc25a21	1	136	102	active
Slc25a21	2	96.1	92	inactive
Slc25a21	3	75.3	92.3	inactive
Ethe1	1	101	106	inactive
Ethe1	2	112	92.2	inactive
Ethe1	3	89.2	88.1	inactive
Strap	1	71.6	32.5	inactive
Strap	2	65.4	84.7	inactive
Strap	3	196	87.7	active
Oas3	1	112	135	inactive
Oas3	2	76.7	90	inactive
Trabd	1	69.6	57.9	inactive
Trabd	2	93.3	85.8	inactive
Trabd	3	44.7	77.8	inactive
Tpt1	1	70	93.7	inactive
Tpt1	2	80.8	89.4	inactive
Clba1	1	77.9	78.2	inactive
Clba1	2	84.5	69.5	inactive
Clba1	3	128	152	active
Chmp7	1	159	73.6	active
Chmp7	2	111	86.2	inactive
Chmp7	3	61.7	56.4	inactive
Chmp7	4	91.2	89.5	inactive
Chmp7	5	87.4	98.7	inactive
Chmp7	6	125	77.2	active
Zfyve28	1	22.1	18.1	inactive
Zfyve28	2	45.1	72.2	inactive
Zfyve28	3	119	73.1	inactive
Thbs1	1	110	102	inactive
Thbs1	2	73.8	71.7	inactive
Brme1	1	94.9	109	inactive
Brme1	2	174	84.8	active
Brme1	3	48.4	72.3	inactive
Slc6a3	1	58.5	83.6	inactive
Slc6a3	2	83.3	71.5	inactive
Slc6a3	3	83.7	69.3	inactive
Ret	1	160	84.7	active
Ret	2	101	85.7	inactive
Ret	3	51.1	49.4	inactive
Brca1	1	136	88.7	active
Brca1	2	93.6	75.1	inactive
Brca1	3	111	105	inactive
Or2z2	1	128	63.5	active
Or2z2	2	133	94.3	active
Or2z2	3	48	105	inactive
Snph	1	63.3	75.6	inactive
Snph	2	49.4	51.2	inactive
Snph	3	44.5	45.2	inactive
